Measurements reported in PubChem BioAssay AID686943 (Drosophila RNAi Screening Center, 2013)
Screen: 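Knockdowns that increase or decrease active ERK after insulin receptor stimulation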 (primary screen). System: Drosophila S2R+ haemocyte-like cells expressing YFP-tagged ERK (Rolled). Reagent: long dsRNA against Drosophila genes. Conditions: insulin stimulation versus unstimulated cells; dose and duration not given. Detection: 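Antibody staining for doubly phosphorylated ERK divided by ERK-YFP signal, as plate z-scores, in insulin-treated and untreated cells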. Scale: replicate 1, z-score of dpERK with insulin and replicate 2, z-score of dpERK with insulin: higher = more active ERK per ERK-YFP after insulin; replicate 1, z-score of dpERK under basal conditions: higher = more basal active ERK per ERK-YFP.
The deposit covers about 23,000 reagents; below is an unselected part of those that have a named target and a result. 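Extra replicates exist only for a retested subset of genes; insulin dose and duration not given; both raised and lowered dpERK matter.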 A plus sign joins genes that one reagent is predicted to hit. Not all columns of the deposit are shown. No sequences are given here. The record does not give: the amount of reagent, the time to read-out.

no.	gene	DRSC id	replicate 1, z-score of dpERK with insulin	replicate 2, z-score of dpERK with insulin	replicate 1, z-score of dpERK under basal conditions
1	CG14370	DRSC14832	-0.1	0.4	1.16
2	vvl	DRSC11409	0.61	0.13	-0.11
3	CG7386	DRSC10832	0.08	0.28	
4	Dbp45A	DRSC07395	1	0.65	-0.64
5	CG14502	DRSC06473	0.44	0.68	0.28
6	Nlg1	DRSC12485	-2.22	-1.85	-0.85
7	Nlg1	DRSC12532	-0.63	-0.46	0.88
8	Nlg1	DRSC12533	0.2	-1.62	0.36
9	Nlg1	DRSC12539	0.18	0.14	0.45
10	Sgt1	DRSC16519	-0.48	-0.1	1.56
11	CG4360	DRSC15566	0.24	0	-0.11
12	CG43367	DRSC08299	0.72	0.12	-1.52
13	CG43367	DRSC08301	0.62	0.54	-1.01
14	CG43367	DRSC08309	0.3	0.51	-0.12
15	h-cup	DRSC15973	-0.86	-0.61	-0.41
16	kek5	DRSC19438	-0.23	0.12	-0.03
17	CG7888	DRSC10926	0.09	0.51	-0.04
18	CG31495	DRSC16762	-0.94	1.95	0.16
19	CG11656	DRSC14338	-0.25	-0.03	-0.44
20	sc	DRSC18830	0.08	0.62	-0.59
21	ND-75	DRSC18686	-0.28	-0.23	0.01
22	fd96Ca	DRSC16946	-2.59	-0.33	-1.03
23	su(w[a])	DRSC18840	-0.32	0.02	-0.17
24	Stt3B	DRSC16781	-0.12	0.46	-0.04
25	Cdk4	DRSC07358	-2.75	-2.56	-2.97
26	Eig71Eh	DRSC11155	0.21	0.43	0.08
27	Su(var)205	DRSC03446	-0.92	-1.08	-0.05
28	Mfe2	DRSC19869	-0.3	0.38	-0.12
29	Pex7	DRSC10651	0.26	0.24	0.45
30	sing + Axs	DRSC19333	0.21	0.59	-0.2
31	pAbp	DRSC07659	-5.83	-6.57	0.63
32	CG31050	DRSC13883	0.33	0.48	0.2
33	CG4069	DRSC10396	-0.16	0.99	-0.73
34	Rcd5	DRSC08180	0.42	-0.41	-0.56
35	CG42675	DRSC12157	-0.57	-0.03	-0.15
36	CG42675	DRSC21868	-0.75	-0.72	-0.41
37	CG13727	DRSC10055	0.01	0.73	-0.28
38	CG32428	DRSC11697	-1.55	-2.65	-2.09
39	CG32428	DRSC11768	0.5	0.27	-0.34
40	Gem3	DRSC11144	-0.76	-1.56	-1.54
41	PolH	DRSC11800	-0.07	0.06	-0.18
42	GM130	DRSC04617	-0.43	0.84	0.1
43	Mco3	DRSC15926	1.22	-0.01	0
44	CG4409	DRSC06869	-0.19	-0.03	1.62
45	Tpst	DRSC18989	0.2	1.01	1.45
46	Tpst	DRSC19696	0.42	0.14	0.05
47	Tpst	DRSC19723	-2.28	-2.24	-2.03
48	Tpst	DRSC19724	-4.8	-1.11	0.31
49	Tpst	DRSC22621	-4.9	-4.94	-3.04
50	COX6AL2 + Ir75d	DRSC10081	-0.18	0.69	-0.64
51	PolrMT	DRSC00660	0.04	0.58	-0.4
52	ND4 (retired record)	DRSC21269	0.42	0.59	2.38
53	Cpr65Aw	DRSC08794	-1.52	-1.21	0.4
54	CG1172	DRSC12182	0.16	0.37	-0.44
55	CG1172	DRSC21954	-0.62	-0.08	0
56	CG1979	DRSC12495	-0.04	-0.06	0.76
57	CG11333	DRSC14301	-0.45	-0.21	-0.28

10 entries already listed, ordered by “replicate 2, z-score of dpERK with insulin”, lowest first:
gene	DRSC id	replicate 1, z-score of dpERK with insulin	replicate 2, z-score of dpERK with insulin	replicate 1, z-score of dpERK under basal conditions
Tpst	DRSC22621	-4.9	-4.94	-3.04
Tpst	DRSC19723	-2.28	-2.24	-2.03
Cpr65Aw	DRSC08794	-1.52	-1.21	0.4
Tpst	DRSC19724	-4.8	-1.11	0.31
Tpst	DRSC19696	0.42	0.14	0.05
CG1172	DRSC12182	0.16	0.37	-0.44
PolrMT	DRSC00660	0.04	0.58	-0.4
ND4 (retired record)	DRSC21269	0.42	0.59	2.38
COX6AL2 + Ir75d	DRSC10081	-0.18	0.69	-0.64
Tpst	DRSC18989	0.2	1.01	1.45
